Reference: PubChem BioAssay AID743448 (Peter MacCallum Cancer Centre, 2014)

Assay: 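Third-round triage of 106 confirmed candidates in four colon lines under two drugs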 (follow-up of hits)
Cell system: four human colon cancer cell lines: HCT116-VR (vorinostat-resistant HCT116 derivative), SW480, SW620 and LIM1215
Knock-down reagent: siRNA pool against human genes, 40 nM siRNA pool
Timing: drug added two days after transfection, read one day later
Treatment: vorinostat 2.5 µM on one half of each plate, etoposide 5 µM on the other half
Cell line and drug panel: SW480 cells with vorinostat
Detection: 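Caspase 3/7 activity by luminescence and live-cell viability by fluorescence, each given as a ratio to mock-transfected wells and as a robust z-score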
Direction: caspase ratio to mock: higher = more caspase activity than mock; viability ratio to mock: higher = more live cells than mock
Active means: 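Hit means caspase ratio to mock at least 1.6, or viability ratio to mock at most 0.75; wells with strong death in the absence of drug get no call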
Meaning of the calls: active = caspase or viability hit in this panel; inactive = no change, or unhealthy well
Shown is an unselected part of the 106 reagents, under one of the conditions tested. 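Calls are per line and drug panel including etoposide, not vorinostat-specific; gene picks needed hits in two or more extra lines with vorinostat versus etoposide.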 Not all columns of the deposit are shown. No sequences are given here.

With knock-down of AP5S1 (adaptor related protein complex 5 subunit sigma 1), the record shows caspase ratio to mock 1.85; viability ratio to mock 0.64; inactive.
CCDC59 (coiled-coil domain containing 59) gave caspase ratio to mock 1.57; viability ratio to mock 0.8; inactive.
NPEPPS (aminopeptidase puromycin sensitive) showed caspase ratio to mock 0.98; viability ratio to mock 0.71; active.
Knock-down of MSANTD1 (Myb/SANT DNA binding domain containing 1) resulted in: caspase ratio to mock 1.85; viability ratio to mock 0.78; active.
For CCNK (cyclin K) the deposit lists caspase ratio to mock 2.29; viability ratio to mock 0.88; active.
POLR2K (RNA polymerase II, I and III subunit K) scored caspase ratio to mock 2; viability ratio to mock 0.72; active.
PLAG1 (PLAG1 zinc finger) scored caspase ratio to mock 1.32; viability ratio to mock 0.79; inactive.
After knock-down of EIF3L (eukaryotic translation initiation factor 3 subunit L), the record shows caspase ratio to mock 1.55; viability ratio to mock 1; inactive.
Depletion of VAX1 (ventral anterior homeobox 1) gave: caspase ratio to mock 2.22; viability ratio to mock 0.9; active.
Depletion of AMDHD2 (amidohydrolase domain containing 2) resulted in: caspase ratio to mock 1.6; viability ratio to mock 0.9; active.
AQR (aquarius intron-binding spliceosomal factor) showed caspase ratio to mock 1.56; viability ratio to mock 0.75; active.
Silencing of GPER1 (G protein-coupled estrogen receptor 1) resulted in: caspase ratio to mock 2.17; viability ratio to mock 1; active.
EIF2B5 (eukaryotic translation initiation factor 2B subunit epsilon) gave caspase ratio to mock 1.58; viability ratio to mock 0.87; inactive.
With knock-down of FLII (FLII actin remodeling protein), the screen gave caspase ratio to mock 1.66; viability ratio to mock 1.23; active.
POLR2I (RNA polymerase II subunit I) showed caspase ratio to mock 2.56; viability ratio to mock 0.9; active.
Knock-down of NFYA (nuclear transcription factor Y subunit alpha) gave: caspase ratio to mock 1.71; viability ratio to mock 0.7; active.
Against VPS4A (vacuolar protein sorting 4 homolog A) the deposit lists caspase ratio to mock 1.82; viability ratio to mock 0.6; inactive.
With knock-down of DDX19B (DEAD-box helicase 19B) the results were caspase ratio to mock 2; viability ratio to mock 1.08; active.
Against SH3GLB2 (SH3 domain containing GRB2 like, endophilin B2), the values are caspase ratio to mock 1.35; viability ratio to mock 0.98; inactive.
Against NUP54 (nucleoporin 54), the values are caspase ratio to mock 1.49; viability ratio to mock 0.88; inactive.
With knock-down of NUP133 (nucleoporin 133), the screen gave caspase ratio to mock 1.79; viability ratio to mock 0.8; active.
Silencing of TGM5 (transglutaminase 5) gave: caspase ratio to mock 1.6; viability ratio to mock 0.94; active.
Depletion of OR6T1 (olfactory receptor family 6 subfamily T member 1) came out at: caspase ratio to mock 1.62; viability ratio to mock 0.79; active.
For TBC1D20 (TBC1 domain family member 20), the values are caspase ratio to mock 1.83; viability ratio to mock 0.74; inactive.
PSMA7 (proteasome 20S subunit alpha 7) showed caspase ratio to mock 1.8; viability ratio to mock 0.88; active.
Against MED26 (mediator complex subunit 26), the values are caspase ratio to mock 2.02; viability ratio to mock 0.68; active.
For DNTTIP2 (deoxynucleotidyltransferase terminal interacting protein 2) the deposit lists caspase ratio to mock 1.14; viability ratio to mock 1.06; inactive.
After knock-down of OSBPL6 (oxysterol binding protein like 6), the record shows caspase ratio to mock 1.68; viability ratio to mock 1; active.
